# Screen size: about 330,000 compounds; about 7,700 (2.3%) were called active. Inconclusive means that the source gave no clear call. Such entries were picked first, then a sample of the others. Calls follow the shape of the dose curve; as a rule, active = well fitted inhibition curve with a large enough effect; inconclusive = small, poorly fitted or top-dose-only effect, or effect the other way; inactive = flat fitted curve, though single readings scatter. Potencies beside an inconclusive call are fits to weak or partial responses and may not hold up.
# Experiment: qHTS screen for small molecules that inhibit ELG1-dependent DNA repair in human embryonic kidney (HEK293T) cells expressing luciferase-tagged ELG1; also: nearly all actives have a fitted effect of over 55% in size
# Conditions: HEK293T ELG1-luciferase reporter, luminescence, 16 h, DNA damage induced by 5-fluorouridine; activity change, negative = inhibition: at 46.1 µM (top of the series)
# Method in brief: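 Overnight (16 hr) co-exposure of 2,000 cells/well to 5-fluorouridine and compound at 37 °C preceded detection. Luciferase was quantified via ONE-Glo luminescence; loss of signal denotes inhibition.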
# % is scaled to controls: 0 for no effect and ±100 for the full control effect; potency is read from the fitted curve at half-maximal effect.
SMILES,Potency,"activity change, negative = inhibition"
Brc1ccc(-c2nc(N/N=C/c3cccnc3)c3ccccc3n2)cc1,"inconclusive: 29.1 µM [inhibitor, single point]",–
CC1=C(C(=O)OCC(C)C)C2(O)C(=O)c3ccccc3C2(O)N1 (configuration not stated),–,inactive: 1.4%
CCOC(=O)COc1cc(Br)c(C2NC(=O)NC(C)=C2C(C)=O)cc1OCC (configuration not stated),"inconclusive: 9.2 µM [activator, partial curve, poor fit]",–
O=C(CN1CCN(S(=O)(=O)c2ccc(Br)cc2)CC1)Nc1ccc2c(c1)OCCO2,"inconclusive: 23.1 µM [inhibitor, single point]",–
COCCNC(=S)N(CCc1c(C)[nH]c2ccc(C)cc12)Cc1ccco1,"inconclusive: 23.1 µM [inhibitor, single point]",–
Cc1cc(S(=O)(=O)N2CCCCC2)c(C)s1,–,inactive: -6.57%
C=CCOC(=O)C1=C(C)NC(SCC(=O)N(CC)CC)=C(C#N)C1c1ccccc1 (configuration not stated),active: 16.4 µM,–
Cc1cc(N2CCCC2)nc2ccc(NC(=S)NC(C)C)cc12,–,inactive: 8.21%
COc1ccc(NC(=O)c2cc(-c3ccccc3)on2)cc1,"inconclusive: 35.5 µM [activator, single point]",–
O=C1CCN(Cc2ccccc2)C=C1c1ccc(C(F)(F)F)cc1,–,inactive: 4.77%
CCN1CCN(C(=O)Nc2ccc(Cc3ccc(NC(=O)N4CCN(CC)CC4)cc3)cc2)CC1,–,inactive: 15.2%
C/C(=N\NC(=O)c1nnn(-c2nonc2N)c1CN1CCCCC1)c1ccccc1O,active: 18.3 µM,–
CCOc1cc(NC(=O)c2ccco2)c(OCC)cc1NC(=O)Cc1cccc(OC)c1,"inconclusive: 20.6 µM [inhibitor, partial curve, poor fit]",–
CC(=O)Nc1ccc(NC(=O)Cn2cnc(S(=O)(=O)N3CCOCC3)c2)cc1,–,inactive: 9.29%
Cc1ccc(/C=C/C(=O)NCC2COc3ccccc3O2)o1 (configuration not stated),–,inactive: -4.79%
Cn1c2ccccc2c2cc(C(=O)NNC(=O)CCl)sc21,"inconclusive: 18.3 µM [activator, single point]",–
S=c1[nH]nc(Cc2cccc3ccccc23)n1-c1ccccc1,–,inactive: -4.14%
Cc1cc(C(=O)COc2ccccc2Cl)c(C)n1-c1ccc2c(c1)OCO2,"inconclusive: 20.6 µM [activator, partial curve]",–
CCOc1ccc(C2Nc3cccc4cccc(c34)N2)cc1OC,"inconclusive: 16.4 µM [inhibitor, partial curve]",–
CN(c1ccc(C(=O)NCCSCc2c(F)cccc2Cl)cc1)S(C)(=O)=O,active: 13 µM,–
O=C(NNC1=Nc2cc([N+](=O)[O-])ccc2OC1)c1ccccc1Cl,"inconclusive: 16.4 µM [inhibitor, single point]",–
CCc1cccc(CC)c1NC(=S)NCCc1c(C)[nH]c2ccccc12,"inconclusive: 23.1 µM [inhibitor, partial curve, poor fit]",–
CN1/C(=C\C(=O)Nc2ccc(F)cc2)C(C)(C)c2ccccc21,"inconclusive: 20.6 µM [inhibitor, single point]",–
COC(=O)c1ccccc1S(=O)(=O)N1CCC(C(=O)Nc2ccc(N3CCOCC3)cc2)CC1,–,inactive: 7.59%

SMILES,Potency,"activity change, negative = inhibition"
COc1cccc(/C=C/C(=O)OCC(=O)c2ccc3c(c2)NC(=O)CO3)c1OC,"inconclusive: 29.1 µM [inhibitor, single point]",–
CCOc1ccc(C(=O)Nc2nnc(S(=O)(=O)Nc3ccccc3C)s2)cc1,–,inactive: 14.3%
CC(C)/C=N/NC(=O)c1cc(Br)ccc1O,"inconclusive: 16.4 µM [activator, partial curve, poor fit]",–
O=C1CN(C(=O)c2cc3ccccc3o2)c2ccccc2N1,"inconclusive: 11.6 µM [activator, partial curve]",–
CCCN=C1N(C)C[C@@H]2[C@@H]3C(=O)N(C)C(=O)[C@@H]3[C@](CC)(C(=O)OC)N12,"inconclusive: 23.1 µM [activator, partial curve, poor fit]",–
CNc1nc(-c2ccc3c(c2)CCN3C(=O)c2ccccc2F)c(C)s1,"inconclusive: 29.1 µM [inhibitor, single point]",–
COc1cc(OC)cc(C(=O)O/N=C(\N)c2ccncc2)c1,–,inactive: 27.6%
COc1ccc(CCN2C(=S)NC3CC2(C)Oc2ccc([N+](=O)[O-])cc23)cc1OC (configuration not stated),active: 25.9 µM,–
C/C(=N\NC(=O)Cc1cccn1C)c1ccco1,"inconclusive: 29.1 µM [inhibitor, single point]",–
CCOC(=O)c1sc(NC(=O)CNCc2ccccn2)c(C(=O)OCC)c1C,active: 11.6 µM,–
CC(=O)c1ccc(OCc2cc(C(=O)N(C)C(C)c3nccs3)no2)cc1 (configuration not stated),"inconclusive: 25.9 µM [activator, single point]",–
COc1ccc(Cc2nc(-c3ccc(-n4cccc4)cc3)no2)cc1,–,inactive: 16.7%
O=C(/C=C/c1cccs1)Nc1cccc(NC(=O)/C=C/c2cccs2)n1,active: 16.4 µM,–
CCCOc1ccc(NC(=O)CC2C(=O)N(CC)C(=S)N2CCCN2CCN(Cc3ccccc3)CC2)cc1 (configuration not stated),"inconclusive: 29.1 µM [inhibitor, single point]",–
CCOC(=O)NC(Nc1ccc(OC)cc1)(C(F)(F)F)C(F)(F)F,"inconclusive: 23.1 µM [activator, partial curve, poor fit]",–
CCOC(=O)c1nnn(-c2nonc2N)c1CNc1ccc(C)c(Br)c1,"inconclusive: 5.17 µM [inhibitor, single point]",–
COc1ccccc1N1CCN(C(=O)c2cc3c(=O)n4cccc(C)c4nc3s2)CC1,"inconclusive: 23.1 µM [inhibitor, partial curve, poor fit]",–
COc1ccc(O)c(-c2cc(-c3ccc(F)cc3)n[nH]2)c1,"inconclusive: 14.6 µM [activator, partial curve]",–
Cc1ccc(N=C(c2cccs2)N2CCOCC2)cc1,"inconclusive: 29.1 µM [activator, single point]",–
CCN(CC)S(=O)(=O)c1cccc(-c2nnc(SCCOc3ccc(Cl)cc3)o2)c1,active: 20.6 µM,–
O=C1CC(N(O)c2ccccc2)C(=O)N1c1ccc(Cl)c(Cl)c1 (configuration not stated),–,inactive: 16.8%
NC(=S)n1[nH]c(-c2ccc([N+](=O)[O-])cc2)c(N=Nc2ccccc2[N+](=O)[O-])c1=O,"inconclusive: 6.51 µM [inhibitor, single point]",–
COC(=O)C1=C(C)OC(N)=C(C#N)C1c1cccnc1 (configuration not stated),–,inactive: 10.3%
CCC(c1nnnn1CS(=O)(=O)c1ccc(C)cc1)N1CCN(c2nc3ccccc3s2)CC1 (configuration not stated),active: 8.2 µM,–

SMILES,Potency,"activity change, negative = inhibition"
Cc1ccc(-c2cc3c(nn2)-c2ccccc2C3=O)cc1,"inconclusive: 0.291 µM [activator, partial curve, poor fit]",–
CCOC(=O)c1cc2n(c1N)-c1ccccc1C2=O,"inconclusive: 3.16 µM [activator, full curve]",–
COc1ccccc1N(CC(=O)NCc1ccco1)C(=O)CCC(=O)Nc1ccccn1,–,inactive: -0.968%
COc1ccc2c(c1OC)C(=O)OC2Nc1nc2ccccc2s1 (configuration not stated),"inconclusive: 9.2 µM [activator, partial curve, poor fit]",–
COc1ccc(OCCNc2c([N+](=O)[O-])c(=O)oc3ccccc23)cc1,–,inactive: -2.92%
CCOc1ccc(NC(=O)Nc2ccon2)cc1,"inconclusive: 10.3 µM [activator, partial curve]",–
Cn1c(=O)c2c(nc(CN3CCc4ccccc4C3)n2Cc2cccc(Cl)c2)n(C)c1=O,"inconclusive: 7.31 µM [inhibitor, partial curve, poor fit]",–
COc1ccc(CCn2c(C)nc3c(c(=O)c4ccccc4n3C)c2=O)cc1,"inconclusive: 13 µM [inhibitor, partial curve, poor fit]",–
O=C(Nc1ccc(S(=O)(=O)NC2=NCCCCC2)cc1)c1cccs1,–,inactive: 1.12%
O=C(OCC(=O)N1CCN(c2ccccc2)CC1)c1ccc([N+](=O)[O-])s1,–,inactive: 2.44%
CC(C)(C)NC(=O)CSc1nc2ccc(Nc3nc(N4CCOCC4)nc(N4CCOCC4)n3)cc2s1,active: 3.26 µM,–
Cc1c(C(=O)/C=C/N(C)C)nnn1-c1ccc(Cl)cc1Cl,"inconclusive: 14.6 µM [activator, partial curve, poor fit]",–
O=C(Nc1ccc2oc(-c3ccccc3F)nc2c1)c1ccccc1F,"inconclusive: 13 µM [activator, partial curve]",–
COCCn1c(=O)[nH]c2cc(C(=O)Nc3cc(OC)c(OC)c(OC)c3)ccc2c1=O,"inconclusive: 29.1 µM [inhibitor, partial curve, poor fit]",–
CCOc1ccc(NC(=O)CSc2ccccc2N)cc1,–,inactive: 22.3%
O=C(CCc1ccccc1)N1CCN(c2ccccc2F)CC1,–,inactive: -4.07%
COC(=O)c1cnc(Nc2cc(C)ccc2OC)c2ccccc12,–,inactive: -1.92%
O=C(Nc1ccc2c(c1)OCCO2)c1cccnc1,"inconclusive: 20.6 µM [activator, partial curve]",–
Cc1nnc(NCCc2ccccc2)c2ccccc12,"inconclusive: 10.3 µM [activator, partial curve]",–
O=C(c1ccc(CS(=O)Cc2ccc(Cl)cc2)o1)N1CCN(c2cccc(Cl)c2)CC1 (configuration not stated),"inconclusive: 18.3 µM [inhibitor, single point]",–
CCOc1ccccc1NC(C)C(=O)NC(=O)NC1CCCCC1 (configuration not stated),–,inactive: 25.6%
N#Cc1c(N)nc(SCc2ccccn2)c(C#N)c1-c1cccs1,active: 14.6 µM,–
Nc1cc(N)nc(SCc2ccc(Cl)cc2)n1,"inconclusive: 29.1 µM [activator, single point]",–
O=C(NCc1ccco1)c1ccc(-c2ccccc2Cl)o1,"inconclusive: 20.6 µM [activator, single point]",–

# Single values from the list.
# For Potency, CCc1cccc(CC)c1NC(=S)NCCc1c(C)[nH]c2ccccc12 is listed with inconclusive: 23.1 µM [inhibitor, partial curve, poor fit]
# For activity change, negative = inhibition, CC(=O)Nc1ccc(NC(=O)Cn2cnc(S(=O)(=O)N3CCOCC3)c2)cc1 is listed with inactive: 9.29%

# An excerpt from the list above, for reference:
SMILES,Potency,"activity change, negative = inhibition"
O=C(c1ccc(CS(=O)Cc2ccc(Cl)cc2)o1)N1CCN(c2cccc(Cl)c2)CC1 (configuration not stated),"inconclusive: 18.3 µM [inhibitor, single point]",–
CCOc1ccccc1NC(C)C(=O)NC(=O)NC1CCCCC1 (configuration not stated),–,inactive: 25.6%

# Source: PubChem BioAssay AID504467 (National Center for Advancing Translational Sciences (NCATS), 2011)
